The values that follow come from paper PMC6638986.

By UniProt entry, the sequences of proteins in these tests, tags left out.
UniProt A0A1D8PN90: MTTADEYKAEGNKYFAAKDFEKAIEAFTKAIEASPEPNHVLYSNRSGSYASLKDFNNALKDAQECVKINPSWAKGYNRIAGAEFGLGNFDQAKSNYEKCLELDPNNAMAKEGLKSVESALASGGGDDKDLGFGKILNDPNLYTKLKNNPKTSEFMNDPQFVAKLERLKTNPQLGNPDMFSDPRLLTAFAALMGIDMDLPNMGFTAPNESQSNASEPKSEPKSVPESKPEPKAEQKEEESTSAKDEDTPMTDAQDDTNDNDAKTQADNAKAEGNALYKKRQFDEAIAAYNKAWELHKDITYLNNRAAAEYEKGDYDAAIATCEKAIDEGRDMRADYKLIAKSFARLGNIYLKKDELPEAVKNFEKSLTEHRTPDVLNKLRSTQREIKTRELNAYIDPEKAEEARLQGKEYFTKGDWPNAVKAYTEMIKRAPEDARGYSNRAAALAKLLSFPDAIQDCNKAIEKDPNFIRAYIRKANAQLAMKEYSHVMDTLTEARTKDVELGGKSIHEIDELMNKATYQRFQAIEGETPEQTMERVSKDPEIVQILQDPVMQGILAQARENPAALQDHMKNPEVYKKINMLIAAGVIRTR
UniProt A0A1D8PKC3: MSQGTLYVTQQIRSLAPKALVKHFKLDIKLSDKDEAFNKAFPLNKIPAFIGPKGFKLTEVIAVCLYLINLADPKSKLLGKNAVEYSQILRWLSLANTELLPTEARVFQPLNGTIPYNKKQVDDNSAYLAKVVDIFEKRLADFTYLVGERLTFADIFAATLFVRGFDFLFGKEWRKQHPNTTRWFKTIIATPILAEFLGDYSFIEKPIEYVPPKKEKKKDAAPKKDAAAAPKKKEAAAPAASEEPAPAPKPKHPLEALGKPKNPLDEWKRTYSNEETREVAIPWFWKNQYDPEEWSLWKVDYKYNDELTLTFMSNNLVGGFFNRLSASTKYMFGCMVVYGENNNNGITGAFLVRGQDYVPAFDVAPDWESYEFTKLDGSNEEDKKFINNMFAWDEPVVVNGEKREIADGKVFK
UniProt O13354: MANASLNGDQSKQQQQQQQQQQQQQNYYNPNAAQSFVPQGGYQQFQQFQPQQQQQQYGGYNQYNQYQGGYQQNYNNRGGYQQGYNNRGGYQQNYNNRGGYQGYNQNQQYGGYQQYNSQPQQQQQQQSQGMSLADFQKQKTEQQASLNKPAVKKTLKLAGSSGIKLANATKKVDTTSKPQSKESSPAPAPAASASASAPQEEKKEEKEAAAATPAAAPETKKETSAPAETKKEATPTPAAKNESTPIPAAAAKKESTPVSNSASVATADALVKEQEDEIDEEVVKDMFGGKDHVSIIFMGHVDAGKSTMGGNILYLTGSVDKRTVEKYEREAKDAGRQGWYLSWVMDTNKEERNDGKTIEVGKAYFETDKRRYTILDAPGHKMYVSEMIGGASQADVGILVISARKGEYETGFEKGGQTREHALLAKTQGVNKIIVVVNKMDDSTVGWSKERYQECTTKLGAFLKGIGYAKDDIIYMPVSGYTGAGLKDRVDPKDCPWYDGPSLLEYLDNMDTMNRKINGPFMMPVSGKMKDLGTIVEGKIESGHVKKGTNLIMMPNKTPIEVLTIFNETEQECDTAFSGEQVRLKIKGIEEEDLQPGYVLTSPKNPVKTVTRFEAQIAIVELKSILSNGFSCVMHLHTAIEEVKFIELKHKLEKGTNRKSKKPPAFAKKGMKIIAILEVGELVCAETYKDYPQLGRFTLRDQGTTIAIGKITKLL

Test [1] deals with Hsp90^E36A-GFP (C-terminally GFP-tagged E36A trap mutant of C. albicans Hsp90) (C. albicans) (UniProt P46598). The test is described as follows: affinity purification with mass spectrometry; single-step GFP-trap resin purification of Hsp90^E36A-GFP from C. albicans lysate; cells in YPD at 30°C untreated, with 8 μg/mL fluconazole or with 100 nM caspofungin; SAINTexpress against Eno1-GFP control, BFDR 2%.

In test [2] the target is Sti1-TAP (C-terminally TAP-tagged C. albicans Sti1) (C. albicans). The test is described as follows: affinity purification with mass spectrometry; tandem affinity purification of TAP-tagged co-chaperone from C. albicans lysate (IgG magnetic beads, TEV cleavage, calmodulin beads); cells in YPD at 30°C; SAINTexpress against TAP-tagged Cas5 control, false discovery rate 2%.

No constants are given. Whether binding was seen depends on the method and setting. In cells and extracts the contact can be indirect. Here binding means that the protein was enriched with, or labelled near, the bait; the list need not be complete. For some of these results: No binding means not detected with the bait.

For the substance “Sti1 (C. albicans), endogenous, untagged (from UniProt A0A1D8PN90 1-589)”, the binding result in test [1] is listed as “no binding”.

Consider “Hsp90 (C. albicans), endogenous, untagged (from UniProt P46598 1-707)”, for which the binding result in test [2] is reported as “binds”.

“Cam1 (C. albicans), endogenous (from UniProt A0A1D8PKC3 1-412)”: the binding entry in test [1] is “binds”.

As for “Sup35 (C. albicans), endogenous (from UniProt O13354 1-715)”, the binding result in test [1] is “binds”.
